Results taken from PubChem BioAssay AID504834 (National Center for Advancing Translational Sciences (NCATS), 2011).
The campaign covered roughly 320,000 compounds. About 22,000 (6.9%) were called active. Inconclusive means that the source gave no clear call. Such entries were picked first, then a sample of the others. The call rests on the fitted dose curve; in most records, active means well fitted inhibition curve with a large enough effect; inconclusive means small, poorly fitted or top-dose-only effect, or another doubt; inactive means no such curve, though single readings can be large or run the other way. Potencies of inconclusive entries are doubtful fits and often do not repeat.

Assay: Primary qHTS for delayed death inhibitors of the malarial parasite plastid, 96 hour incubation
Settings: P. falciparum luciferase reporter growth; series mostly up to 28.7 µM; activity change, negative = inhibition: at the top concentration
Procedure, shortened: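 96 h incubation, 37 C, 5% CO2, of luciferase-reporter P. falciparum-infected RBCs (2% hematocrit, 0.05% parasitemia final) with test compounds; endpoint luminescence.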
On the % scale 0 is the no-effect control and ±100 the full control effect; potency means the concentration at half of the fitted maximal effect.

Row | SMILES | Potency | activity change, negative = inhibition
1 | CC(=O)N1c2ccc(S(=O)(=O)N3CCCC3)cc2CC1C(=O)NCc1ccccc1F (centres undefined) | inconclusive: 18.5 µM [inhibitor, single point] | 
2 | COc1cccc(NC(=O)c2ccc(-c3ccccc3[N+](=O)[O-])o2)c1 |  | inactive: 25.9%
3 | CCn1c2ccccc2c2n[nH]c(=S)nc21 |  | inactive: -0.819%
4 | CCOC(=O)Nc1ccc2c(CN3CCN(S(=O)(=O)c4ccccc4)CC3)cc(=O)oc2c1 | active: 6.57 µM | 
5 | COc1ccc(OC)c(-c2cc(C(=O)N3CCCc4ccccc43)no2)c1 | inconclusive: 0.0033 µM [inhibitor, full curve, poor fit] | 
6 | CN1CC(=O)Nc2ccc([N+](=O)[O-])cc2C1=O | inconclusive: 18.5 µM [inhibitor, single point] | 
7 | COc1ccc([C@]23Cc4c(ccc5ccccc45)C(O2)C2=C(CCCC2=O)O3)cc1 | inconclusive: 3.29 µM [inhibitor, full curve] | 
8 | N=C1C(c2ccccc2)=C(O)CN1c1cccc(O)c1 |  | inactive: 9.63%
9 | COc1ccc(-c2csc(NC(=O)C3CSC4(C)CCC(=O)N34)n2)c(OC)c1 (centres undefined) | inconclusive: 8.28 µM [inhibitor, partial curve, poor fit] | 
10 | Brc1ccc(CN2C3=NCCCN3c3ccccc32)cc1 |  | inactive: 131%
11 | CCOCCCN(C)C1CCN(C(=O)c2oc3ccccc3c2NC(=O)Cc2cccc([N+](=O)[O-])c2)CC1 | inconclusive: 0.0928 µM [inhibitor, full curve, poor fit] | 
12 | O=C(Nc1cc(Sc2nc3ccccc3s2)cc([N+](=O)[O-])c1)c1cccc(F)c1F |  | inactive: -19.2%
13 | CCNc1ccc(N=Nc2c(C)n(C)n(-c3ccccc3)c2=O)cc1 | inconclusive: 18.5 µM [inhibitor, single point] | 
14 | COc1ccc(N2CCN(c3nc(Cl)nc(N4CCOCC4)n3)CC2)cc1 | inconclusive: 4.15 µM [inhibitor, single point] | 
15 | Cc1cccc(OCC(=O)Nc2ccc3c(c2)C(=O)NC3=O)c1 | inconclusive: 10.4 µM [inhibitor, single point] | 
16 | CCc1ccccc1N1C(=O)C2C3CC(=O)C(c4ccccc43)C2C1=O (centres undefined) | inconclusive: 0.657 µM [inhibitor, partial curve, poor fit] | 
17 | COc1cc(-c2cc(-c3ccc(N)cc3)[nH]c(=O)c2C#N)cc(OC)c1OC | inconclusive: 18.5 µM [inhibitor, single point] | 
18 | N#C/C=C1\Sc2ccccc2C(=O)N1CC(=O)N1CCN(S(=O)(=O)c2ccccc2)CC1 | inconclusive: 18.5 µM [inhibitor, single point] | 
19 | O=C(CCCN1C(=O)/C(=C/c2cccs2)SC1=S)NNC(=O)c1cccnc1 | active: 14.7 µM | 
20 | CCOc1ncccc1C(=O)NNC(=O)c1ccc(NS(=O)(=O)c2cccs2)cc1 |  | inactive: 13.3%
21 | C=CCN1C(=O)c2ccccc2Sc2ccc(C(=O)N3CCC4(CC3)OCCO4)cc21 | active: 10.4 µM | 
22 | COc1ccc(S(=O)(=O)N2CCCCC2)cc1NC(=O)COc1ccccc1 | inconclusive: 7.38 µM [inhibitor, partial curve, poor fit] | 

2 of the compounds above, as labelled records.
N=C1C(c2ccccc2)=C(O)CN1c1cccc(O)c1
  activity change, negative = inhibition: inactive: 9.63%
CCNc1ccc(N=Nc2c(C)n(C)n(-c3ccccc3)c2=O)cc1
  Potency: inconclusive: 18.5 µM [inhibitor, single point]

(further entries)

Row | SMILES | Potency | activity change, negative = inhibition
23 | NC(=S)c1c(Cl)cc(C(F)(F)F)cc1Cl |  | inactive: 36.8%
24 | NS(=O)(=O)c1ccc(CCNC(=O)COC(=O)COc2cccc(C(F)(F)F)c2)cc1 | inconclusive: 0.0165 µM [inhibitor, full curve, poor fit] | 
25 | Cc1c(CCOC(=O)CC23CC4CC(CC(C)(C4)C2)C3)sc[n+]1CC(=O)c1ccccc1 |  | inactive: -9.73%
26 | COc1ccc(NC(=O)c2c3c(nc4ccccc24)CCC3)cc1S(=O)(=O)N1CCOCC1 | inconclusive: 18.5 µM [inhibitor, single point] | 
27 | O=C(O)CCC(=O)NNc1ncnc2ccccc12 |  | inactive: 16.5%
28 | CC(=O)Nc1ccccc1C(=O)C(=O)Nc1cccc(C(=O)N2CC(C)CC(C)C2)c1 (centres undefined) | inconclusive: 11.7 µM [inhibitor, single point] | 
29 | Cn1c(COc2ccc(F)cc2)nc2ccccc21 | inconclusive: 11.7 µM [inhibitor, partial curve, poor fit] | 
30 | Cc1nnc(NC(=O)CSc2nnc(-c3ccoc3C)n2CC(C)C)s1 | inconclusive: 10.4 µM [inhibitor, single point] | 
31 | O=C(NC(=S)N1CCN(c2ccc([N+](=O)[O-])cc2)CC1)c1ccco1 | inconclusive: 11.7 µM [inhibitor, partial curve] | 
32 | CC1(C)CC(NC(=O)COc2ccc3ccc(=O)oc3c2)CC(C)(C)N1 |  | inactive: 0.0825%
33 | Cc1nnc2ccc(N3CCOCC3)nn12 |  | inactive: 31.2%
34 | CCCCOc1ccc(C(=O)N2CCNC(=O)C2CC(=O)OC(C)C)cc1 (centres undefined) | inconclusive: 18.5 µM [inhibitor, single point] | 
35 | CSc1ccc(/C=C(/NC(=O)c2ccc(C)cc2)C(=O)Nc2cccc(F)c2)cc1 |  | inactive: 62.9%
36 | Nc1c(NCCN2CCCCC2)c2ccccc2oc1=O | inconclusive: 8.28 µM [inhibitor, partial curve, poor fit] | 
37 | CC(C)N1C(=O)C2(OCCCO2)c2cc(Br)ccc21 | inconclusive: 5.86 µM [inhibitor, partial curve, poor fit] | 
38 | COC(=O)/C=C/C(=O)Nc1ccc(O)c(Cl)c1 | inconclusive: 11.7 µM [inhibitor, single point] | 
39 | O=C(Cc1n[nH]c(=O)c2ccccc12)OCC(=O)c1ccccc1Cl | inconclusive: 18.5 µM [inhibitor, partial curve, poor fit] | 
40 | Cn1c(NCCc2ccccc2)cc(=O)n(C)c1=O | inconclusive: 0.233 µM [inhibitor, full curve, poor fit] | 
41 | O=C(COc1cc2oc(=O)c3c(c2cc1Cl)CCC3)Nc1ccccn1 |  | inactive: 14.5%
42 | COc1ccc(Cc2nnc(NC(=O)Nc3ccccc3OC)s2)cc1 | inconclusive: 18.5 µM [inhibitor, single point] | 
43 | Oc1ccc(Br)cc1CN1CCN(c2ccccc2)CC1 |  | inactive: 63.3%
44 | Cc1cc(NC(=O)c2ccc3c(c2)C(=O)N(c2cccc(C)c2C)C3=O)no1 | inconclusive: 6.57 µM [inhibitor, partial curve, poor fit] | 

Random excerpt: two compounds from above.
Row | SMILES | Potency | activity change, negative = inhibition
35 | CSc1ccc(/C=C(/NC(=O)c2ccc(C)cc2)C(=O)Nc2cccc(F)c2)cc1 |  | inactive: 62.9%
6 | CN1CC(=O)Nc2ccc([N+](=O)[O-])cc2C1=O | inconclusive: 18.5 µM [inhibitor, single point] | 
